The text below walks through data of article PMC10246299.

By UniProt entry, the sequences of proteins in these tests, tags left out. Where a name states a change or a piece, a line headed by the entry shows the natural chain unless it says otherwise.
UniProt P43406: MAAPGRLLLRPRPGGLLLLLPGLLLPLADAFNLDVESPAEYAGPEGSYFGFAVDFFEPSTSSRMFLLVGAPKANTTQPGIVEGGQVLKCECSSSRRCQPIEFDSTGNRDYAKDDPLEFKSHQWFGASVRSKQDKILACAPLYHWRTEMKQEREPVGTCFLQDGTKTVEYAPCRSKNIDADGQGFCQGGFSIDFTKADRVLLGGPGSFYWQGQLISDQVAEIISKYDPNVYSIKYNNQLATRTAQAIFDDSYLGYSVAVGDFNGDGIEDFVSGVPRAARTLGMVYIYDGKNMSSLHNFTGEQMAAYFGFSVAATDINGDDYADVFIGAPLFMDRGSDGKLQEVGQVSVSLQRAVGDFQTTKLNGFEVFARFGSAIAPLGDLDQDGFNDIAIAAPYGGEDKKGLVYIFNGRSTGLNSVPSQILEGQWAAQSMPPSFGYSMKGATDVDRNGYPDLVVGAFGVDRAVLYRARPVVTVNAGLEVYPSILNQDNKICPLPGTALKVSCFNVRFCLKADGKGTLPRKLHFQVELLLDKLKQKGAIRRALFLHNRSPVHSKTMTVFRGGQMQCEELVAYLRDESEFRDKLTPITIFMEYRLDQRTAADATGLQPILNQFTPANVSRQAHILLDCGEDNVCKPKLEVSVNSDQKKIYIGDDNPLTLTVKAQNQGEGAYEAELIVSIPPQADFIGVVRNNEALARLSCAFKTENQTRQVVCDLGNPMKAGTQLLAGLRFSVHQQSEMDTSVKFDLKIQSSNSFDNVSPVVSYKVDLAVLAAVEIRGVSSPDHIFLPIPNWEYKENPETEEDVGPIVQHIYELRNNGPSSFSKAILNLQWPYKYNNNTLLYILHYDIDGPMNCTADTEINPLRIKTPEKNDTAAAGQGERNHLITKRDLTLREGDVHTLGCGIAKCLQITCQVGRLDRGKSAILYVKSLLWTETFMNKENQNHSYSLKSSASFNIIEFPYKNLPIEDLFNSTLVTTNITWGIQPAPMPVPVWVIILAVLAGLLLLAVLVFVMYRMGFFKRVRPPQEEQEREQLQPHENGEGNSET

The target in experiment [1] is T1, commercially available mammalian cell-expressed His-tagged rhMFG-E8 (R&D Systems, cat: 2767-MF) (human) (UniProt Q08431).
T1 sequence: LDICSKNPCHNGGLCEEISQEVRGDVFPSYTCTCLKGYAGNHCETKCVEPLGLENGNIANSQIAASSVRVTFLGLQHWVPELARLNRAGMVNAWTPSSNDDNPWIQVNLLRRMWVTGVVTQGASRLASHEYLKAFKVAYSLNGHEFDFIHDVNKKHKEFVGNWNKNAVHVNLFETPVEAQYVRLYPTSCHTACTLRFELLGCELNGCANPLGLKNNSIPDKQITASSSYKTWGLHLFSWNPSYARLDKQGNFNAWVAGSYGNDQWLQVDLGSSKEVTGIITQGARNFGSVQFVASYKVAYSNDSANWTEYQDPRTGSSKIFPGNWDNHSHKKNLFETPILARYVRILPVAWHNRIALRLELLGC
In words: cell adhesion assay; wells pre-coated with different concentrations of rhMFG-E8; fluorescently labelled SVEC4-10 cells added; after washes the percentage of cells that remained bound to the plate was read on a fluorescence plate reader; also repeated with lyophilised protein stored at -20°C for up to 2 years; only the target purified.

For experiment [2], the target named is T2, human cell-expressed tag-free recombinant human MFG-E8 (rhMFG-E8) (human) (UniProt Q08431).
T2 sequence: T1 sequence
The description is as above.

Results are given in words; binding and its absence hold for the method and conditions named. Some binding calls cover weakened binding; strength is not graded here. Sequences can lack the tags named with a protein.

“αvβ3 integrin on the surface of mouse vascular endothelial cells SVEC4-10 (from UniProt P43406 31-1044; O54890 26-787) (receptor)”: the binding entry in experiment [1] and in experiment [2] was “binds” each time.
